# According to PMC12229345:
# Amino acid sequences for entries named in this document (tags omitted). Residues count along the entry.
# UniProt O75973, residues 17-258: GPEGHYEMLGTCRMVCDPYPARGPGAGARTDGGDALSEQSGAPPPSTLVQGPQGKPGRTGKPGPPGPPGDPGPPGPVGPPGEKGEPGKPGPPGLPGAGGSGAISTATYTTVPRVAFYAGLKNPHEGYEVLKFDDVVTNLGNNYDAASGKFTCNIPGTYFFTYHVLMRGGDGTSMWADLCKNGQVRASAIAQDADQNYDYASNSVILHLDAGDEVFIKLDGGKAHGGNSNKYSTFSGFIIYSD
# UniProt P14625, residues 22-803: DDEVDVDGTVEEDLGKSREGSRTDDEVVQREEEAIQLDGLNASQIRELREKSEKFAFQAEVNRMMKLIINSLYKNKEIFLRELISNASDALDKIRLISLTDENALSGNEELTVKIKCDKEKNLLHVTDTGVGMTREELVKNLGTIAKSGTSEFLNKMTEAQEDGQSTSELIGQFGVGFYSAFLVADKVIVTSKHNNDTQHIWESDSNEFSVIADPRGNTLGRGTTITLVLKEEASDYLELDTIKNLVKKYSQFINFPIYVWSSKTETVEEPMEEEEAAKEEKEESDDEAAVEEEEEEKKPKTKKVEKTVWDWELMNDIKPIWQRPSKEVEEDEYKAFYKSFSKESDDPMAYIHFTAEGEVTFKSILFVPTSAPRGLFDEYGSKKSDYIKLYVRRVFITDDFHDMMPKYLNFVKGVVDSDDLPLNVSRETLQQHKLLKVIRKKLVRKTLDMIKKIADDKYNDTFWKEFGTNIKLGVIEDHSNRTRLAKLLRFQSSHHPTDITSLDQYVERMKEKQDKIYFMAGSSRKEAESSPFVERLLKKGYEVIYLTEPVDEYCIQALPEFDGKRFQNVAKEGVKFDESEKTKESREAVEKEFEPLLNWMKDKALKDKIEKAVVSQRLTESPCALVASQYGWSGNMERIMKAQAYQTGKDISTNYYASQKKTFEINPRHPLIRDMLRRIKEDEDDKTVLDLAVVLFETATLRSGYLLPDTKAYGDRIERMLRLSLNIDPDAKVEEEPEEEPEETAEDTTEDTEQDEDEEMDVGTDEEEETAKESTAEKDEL
# UniProt P30101, residues 25-505: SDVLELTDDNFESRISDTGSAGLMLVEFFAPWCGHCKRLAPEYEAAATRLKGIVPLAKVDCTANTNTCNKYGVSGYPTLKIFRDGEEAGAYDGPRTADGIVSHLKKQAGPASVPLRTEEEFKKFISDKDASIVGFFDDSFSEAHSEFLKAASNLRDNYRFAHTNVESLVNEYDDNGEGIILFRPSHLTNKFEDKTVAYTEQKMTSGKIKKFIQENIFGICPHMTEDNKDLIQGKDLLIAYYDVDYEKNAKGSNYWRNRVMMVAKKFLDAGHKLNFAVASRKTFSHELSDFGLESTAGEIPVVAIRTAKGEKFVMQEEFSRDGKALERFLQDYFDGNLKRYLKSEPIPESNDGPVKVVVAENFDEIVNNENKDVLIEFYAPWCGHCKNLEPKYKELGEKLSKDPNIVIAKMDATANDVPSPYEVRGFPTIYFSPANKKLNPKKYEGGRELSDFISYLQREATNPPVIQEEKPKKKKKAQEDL
# UniProt P27824, residues 21-592: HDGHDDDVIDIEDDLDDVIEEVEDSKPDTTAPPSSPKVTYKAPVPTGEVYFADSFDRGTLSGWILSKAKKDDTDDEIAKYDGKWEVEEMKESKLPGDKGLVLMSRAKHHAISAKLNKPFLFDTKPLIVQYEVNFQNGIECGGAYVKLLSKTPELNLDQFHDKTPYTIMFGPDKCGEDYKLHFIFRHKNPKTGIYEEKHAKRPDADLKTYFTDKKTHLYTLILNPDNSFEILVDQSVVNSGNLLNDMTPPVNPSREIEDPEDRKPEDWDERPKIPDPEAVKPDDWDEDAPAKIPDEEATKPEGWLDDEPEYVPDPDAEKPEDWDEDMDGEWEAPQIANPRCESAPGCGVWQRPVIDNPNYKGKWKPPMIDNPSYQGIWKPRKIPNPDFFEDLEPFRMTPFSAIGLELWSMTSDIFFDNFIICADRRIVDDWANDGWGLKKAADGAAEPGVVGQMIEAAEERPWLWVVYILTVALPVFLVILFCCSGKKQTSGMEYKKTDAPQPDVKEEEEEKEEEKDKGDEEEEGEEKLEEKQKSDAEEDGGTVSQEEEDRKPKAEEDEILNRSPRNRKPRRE
# UniProt P07237, residues 18-508: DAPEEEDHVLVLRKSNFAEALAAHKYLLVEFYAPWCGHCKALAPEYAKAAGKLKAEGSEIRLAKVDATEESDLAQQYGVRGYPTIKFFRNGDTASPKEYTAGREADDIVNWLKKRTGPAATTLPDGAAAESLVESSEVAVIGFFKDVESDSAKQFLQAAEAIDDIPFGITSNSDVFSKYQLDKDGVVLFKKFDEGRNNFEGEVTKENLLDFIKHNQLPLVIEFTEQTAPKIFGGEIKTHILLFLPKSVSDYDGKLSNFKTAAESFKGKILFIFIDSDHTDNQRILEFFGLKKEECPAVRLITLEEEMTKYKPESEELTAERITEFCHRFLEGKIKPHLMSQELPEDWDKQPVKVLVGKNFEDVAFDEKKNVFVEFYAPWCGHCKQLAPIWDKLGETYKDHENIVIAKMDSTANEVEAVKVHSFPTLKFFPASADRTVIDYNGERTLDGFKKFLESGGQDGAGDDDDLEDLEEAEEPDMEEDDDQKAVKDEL
# These are yes or no findings as the source states them, for the method shown. Binding seen in cells or lysates may run through a third protein. These calls come from enrichment with a bait or labelling near it, and not all partners need be listed.
# Molecular target: C1QL1-FLAG (complement component 1, q subcomponent-like 1), stably expressed in MDA-MB-231 and MDA-MB-468 cells (UniProt O75973)
# Assay: affinity purification with mass spectrometry; lysates of MDA-MB-231 and MDA-MB-468 cells stably expressing C1QL1; co-IP with anti-Flag or anti-IgG, then LC-MS/MS
row,Substance,binding
1,"HSP90B1 (GRP94), endogenous in MDA-MB-231 and MDA-MB-468 cells (from UniProt P14625 22-803)",binds
2,"PDIA3 (ERP57), endogenous in MDA-MB-231 and MDA-MB-468 cells (from UniProt P30101 25-505)",binds
3,"heat shock protein 90α (HSP90α), endogenous in MDA-MB-231 and MDA-MB-468 cells (from UniProt P07900 1-732)",binds
4,"Calnexin (CANX), endogenous in MDA-MB-231 and MDA-MB-468 cells (from UniProt P27824 21-592)",binds
5,"P4HB, endogenous in MDA-MB-231 and MDA-MB-468 cells (from UniProt P07237 18-508)",binds
6,"valosin-containing protein (VCP), endogenous in MDA-MB-231 and MDA-MB-468 cells (from UniProt P55072 1-806)",binds
